Results published in US4146614A (State of Michigan, priority 1977, dated 1979).

Test: Boc solid-phase peptide synthesis; Merrifield resin; dicyclohexylcarbodiimide
Conditions: whole synthesis

| Substance | crude yield (hydrochloride salt) | isolated yield (hydrochloride) |
| --- | --- | --- |
| Glycylthreonylvalylleucine | 60% yield | – |
| N-α-acetyl-tyrosylthreonylvalyllleucine | – | 59% yield |
